This experiment has as its target T1, hexahistidine-tagged EME1 (human) (UniProt Q96AY2).
T1 sequence: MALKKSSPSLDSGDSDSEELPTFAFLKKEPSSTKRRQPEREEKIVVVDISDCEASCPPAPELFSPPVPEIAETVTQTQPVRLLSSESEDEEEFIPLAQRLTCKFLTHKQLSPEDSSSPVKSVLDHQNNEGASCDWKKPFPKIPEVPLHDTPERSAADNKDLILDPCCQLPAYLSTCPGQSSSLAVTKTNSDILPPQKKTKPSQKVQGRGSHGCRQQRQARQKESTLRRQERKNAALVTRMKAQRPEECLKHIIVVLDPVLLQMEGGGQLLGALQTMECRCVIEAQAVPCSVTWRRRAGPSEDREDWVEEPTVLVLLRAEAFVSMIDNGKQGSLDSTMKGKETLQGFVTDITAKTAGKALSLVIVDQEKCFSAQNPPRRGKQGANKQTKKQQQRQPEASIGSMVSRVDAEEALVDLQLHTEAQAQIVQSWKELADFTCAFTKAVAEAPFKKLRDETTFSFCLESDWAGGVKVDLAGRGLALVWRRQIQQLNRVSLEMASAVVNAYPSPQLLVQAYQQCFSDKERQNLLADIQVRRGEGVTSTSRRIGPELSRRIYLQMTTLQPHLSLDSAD
The experiment is described as follows: co-purification (nickel affinity, ion exchange, gel filtration); MUS81 (non-tagged) and His6-EME1 co-expressed in High Five insect cells; extract passed over a HiTrap chelating column charged with nickel, a Mono S and/or a Superdex 200 column; traced by SDS-PAGE and western blot.

These are yes or no findings as the source states them, for the method shown. Some binding calls cover weakened binding; strength is not graded here. Tags and fused reporters may be left off the sequences shown.

B1: MUS81 (protein, UniProt Q96NY9 1-551)
chain: MAAPVRLGRKRPLPACPNPLFVRWLTEWRDEATRSRRRTRFVFQKALRSLRRYPLPLRSGKEAKILQHFGDGLCRMLDERLQRHRTSGGDHAPDSPSGENSPAPQGRLAEVQDSSMPVPAQPKAGGSGSYWPARHSGARVILLVLYREHLNPNGHHFLTKEELLQRCAQKSPRVAPGSARPWPALRSLLHRNLVLRTHQPARYSLTPEGLELAQKLAESEGLSLLNVGIGPKEPPGEETAVPGAASAELASEAGVQQQPLELRPGEYRVLLCVDIGETRGGGHRPELLRELQRLHVTHTVRKLHVGDFVWVAQETNPRDPANPGELVLDHIVERKRLDDLCSSIIDGRFREQKFRLKRCGLERRVYLVEEHGSVHNLSLPESTLLQAVTNTQVIDGFFVKRTADIKESAAYLALLTRGLQRLYQGHTLRSRPWGTPGNPESGAMTSPNPLCSLLTFSDFNAGAIKNKAQSVREVFARQLMQVRGVSGEKAAALVDRYSTPASLLAAYDACATPKEQETLLSTIKCGRLQRNLGPALSRTLSQLYCSYGPLT
Consider B1, for which the binding entry is recorded as “binds”.

The values above are taken from PMC3919598.
